Drawing on publication PMC7819943, “Rice protein-binding microarrays: a tool to detect cis-acting elements near promoter regions in rice”, this text covers binding signal for 54 sequences.

Amino acid sequences for entries named in this document (tags omitted).
UniProt Q0JBA9, entry or part of it: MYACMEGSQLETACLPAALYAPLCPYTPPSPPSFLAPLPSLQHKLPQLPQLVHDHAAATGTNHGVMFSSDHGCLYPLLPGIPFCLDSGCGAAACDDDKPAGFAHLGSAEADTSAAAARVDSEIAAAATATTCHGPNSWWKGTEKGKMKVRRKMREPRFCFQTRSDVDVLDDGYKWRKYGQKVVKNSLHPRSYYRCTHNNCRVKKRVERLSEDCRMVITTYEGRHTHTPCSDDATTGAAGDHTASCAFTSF

The list shows a part of the results.

This test concerns the target OsWRKY34 (Oryza sativa, UniProt Q0JBA9 1-250). Briefly: protein-binding microarray (RPBM); PBS, 2% BSA, 51.3 ng/ul salmon testes DNA, 50 uM zinc acetate, 200 nM TF, 25 C, 1 h; high values mean tight binding. The settings on record: protein: recombinant; tags: N-terminal polyhistidine and DsRed monomer fusion (pET32a); label: CyDye5-dUTP incorporated in the synthesized complementary strand; 3' TTTTT single-stranded linker to array surface; dsDNA, one strand shown. An outline of the steps: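 Binding signal is reported as fluorescence intensity per feature (arbitrary units) from an Axon 4000B scanner. Incubation used 200 nM of each Ni–NTA-purified, N-terminally polyhistidine- and DsRed-fused transcription factor from E. coli BL21-CodonPlus on a double-stranded custom Agilent array for 1 h at 25 °C, with 50 µM zinc acetate in the buffer, followed by washing.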
Turning to “CCTTATTTTGACTATTCTTGTCTCAACTCAGGGATGTCCTCGGAGTCACCTAGTGCAG”, the binding signal is 9400 fluorescence intensity (a.u.).
Under “GCGCTCTCCGGTGTGGGATCTCCGAGTTTTTTTTTTCGTTCGGAGTCACCTAGTGCAG” stands 9630 fluorescence intensity (a.u.).
“TCACTCTCCCATACTACTAGTACCACTCTACTAGACTCCGCGGAGTCACCTAGTGCAG”: the binding signal was 8500 fluorescence intensity (a.u.).
As for “AAAAATGCTCGGTGATTTTTATTGTTTTTTTTTCTTTTGCCGGAGTCACCTAGTGCAG”, the figure is 8690 fluorescence intensity (a.u.); as for “GTGTATGTGGATCGAATCGAATTGGAGTTGGTATGGGCGTCGGAGTCACCTAGTGCAG”, 8050 fluorescence intensity (a.u.); as for “CTAAATTTGCCATAAATGTTACTACCCTTTTACCTAATATCGGAGTCACCTAGTGCAG”, 8960 fluorescence intensity (a.u.).
As for “AAACGTACCATTCGGCTTTCCTTTATGTCCTTCCAACACCCGGAGTCACCTAGTGCAG”, the binding signal is 8580 fluorescence intensity (a.u.).
As to “TCCCTACCTAGCTCGTCTTCCTCTACTACTTATACCCGCCCGGAGTCACCTAGTGCAG”, the binding signal was 8830 fluorescence intensity (a.u.).
With “TAATACTATGGTTTCACTGTTAACATAATTCGGCTAGTTACGGAGTCACCTAGTGCAG”, the binding signal is 8790 fluorescence intensity (a.u.).
Consider “CCGTTTTTTTTCGAGAAATTTTTTTTCCGCCCGCTTCCTTCGGAGTCACCTAGTGCAG”, for which the binding signal is 11600 fluorescence intensity (a.u.).
For “GGGGAGTAAAATGGATTTTTTTTCTGTTAAGAAAATGGTTCGGAGTCACCTAGTGCAG”, the binding signal was 10100 fluorescence intensity (a.u.).
Regarding “TCGCGTACACCGTAGTTAGCCAAGCCGCTCCGCCTCGTTTCGGAGTCACCTAGTGCAG”, the binding signal was 9350 fluorescence intensity (a.u.).
“GTTTGTATCTCTACTACTCTCTCCGTTTCATATTTTAAGACGGAGTCACCTAGTGCAG”: the binding signal is 8290 fluorescence intensity (a.u.).
As to “CCCCACCCGATCGCCGCCGCCGCCGCCGCCGCCACCCGCGCGGAGTCACCTAGTGCAG”, the binding signal is 10300 fluorescence intensity (a.u.).
“CTTATGTTGTTTAAACTATCTTACATATTCCCTCTATTTCCGGAGTCACCTAGTGCAG”: the binding signal was 8300 fluorescence intensity (a.u.).
Regarding “ATGGGTTGGGACTGTCCTGGTGCGCGATTACTAACGTGGACGGAGTCACCTAGTGCAG”, the binding signal is 8790 fluorescence intensity (a.u.).
Take “GAAGTTTTTGGCAGGGGTTAGTTTCGAATTAAGTTTTTGACGGAGTCACCTAGTGCAG”: the binding signal was 13700 fluorescence intensity (a.u.).
For the sequence “TCTCACATGCTTCCGTACGCCTCAACCAATTCTGATTCTGCGGAGTCACCTAGTGCAG”, the binding signal was 8760 fluorescence intensity (a.u.).
With “TGCATAAAAGTCTGTGTCTGAAAGTCATGTCATCACGTATCGGAGTCACCTAGTGCAG”, the binding signal is 9370 fluorescence intensity (a.u.).
In the case of “ACCCTCGCTTTCTCCGATCGAATTGCTCGCCCGAGCACCACGGAGTCACCTAGTGCAG”, the binding signal is 11300 fluorescence intensity (a.u.).
Regarding “GCTTGCCGTCACTCTCGTCCCGTTTGCCGCTGCACTGCACCGGAGTCACCTAGTGCAG”, the binding signal was 10600 fluorescence intensity (a.u.).
Consider “AACACACCACGGCCGCGGTCGCAACCACCACCTCCTCATCCGGAGTCACCTAGTGCAG”, for which the binding signal is 8550 fluorescence intensity (a.u.).
Take “AGTGCGTGCGTACGTGCGGGAGGGAGGAGGAGGGGAGATGCGGAGTCACCTAGTGCAG”: the binding signal is 8250 fluorescence intensity (a.u.).
For the sequence “CATCATCTCCTTCGCGCCGTCGTCGACCACCATCACCATGCGGAGTCACCTAGTGCAG”, the binding signal was 8220 fluorescence intensity (a.u.).
Under “GGGTATAAAGTCACTCTATTCGTTCTCACCGTTTTTTCGGCGGAGTCACCTAGTGCAG” stands 8150 fluorescence intensity (a.u.); under “CATGTCGACGATCTTCCTAATTTACATATATGTCATGCTTCGGAGTCACCTAGTGCAG”, 8580 fluorescence intensity (a.u.).
Turning to “GCAACGCCGCCGTTTTCTTCGCCTCTCACAGAGACGACTCCGGAGTCACCTAGTGCAG”, the binding signal was 9200 fluorescence intensity (a.u.).
As to “GGCTGTCTCCTCCTTAAGCACCTCCTGCAAAATATTATTACGGAGTCACCTAGTGCAG”, the binding signal is 8580 fluorescence intensity (a.u.).
In the case of “ATTTCGATGGGTGGGCTTGGGCTGACAAACAATCACGCTCCGGAGTCACCTAGTGCAG”, the binding signal is 13300 fluorescence intensity (a.u.).
“AATGTGGTGGTGGTGGTGGTGAACGGAGGAGGGAGGGAGCCGGAGTCACCTAGTGCAG”: the binding signal is 13000 fluorescence intensity (a.u.).
“CCTGTGCTGACCTCCTCTACCGTGATGGCCTCCTCGACCTCGGAGTCACCTAGTGCAG”: the binding signal was 8330 fluorescence intensity (a.u.).
Turning to “TTCTTAGTTGCTATATGTAGAGTTGGCTTGCATTTTTTTCCGGAGTCACCTAGTGCAG”, the binding signal was 8810 fluorescence intensity (a.u.).
On to “CTGTCTACATCGCCCGTGTCTTGTGCGTTTGCTCTCTCGCCGGAGTCACCTAGTGCAG”, for which the binding signal was 10100 fluorescence intensity (a.u.).
For “GTGCAGCATGAAGAGGGTTGACCGGGTCGGGTTTGACTTGCGGAGTCACCTAGTGCAG”, the binding signal is 12500 fluorescence intensity (a.u.).
As for “GTCTTCTCCTGATCGCGGTGGTGTTTTTTTTTTTTGTTTTCGGAGTCACCTAGTGCAG”, the figure is 9620 fluorescence intensity (a.u.).
With “ATTTGTTACTCCATACTCCCTCCGTCCGTTGTACAATATACGGAGTCACCTAGTGCAG”, the binding signal is 8070 fluorescence intensity (a.u.).
For the sequence “ACCACCACCACCAGCGCGCGTCTCCGCCTAAACATAGCTACGGAGTCACCTAGTGCAG”, the binding signal is 9330 fluorescence intensity (a.u.).
Take “ACATGGCTGGTCTCACTGTCAAACTGGCCCCACGCGACCACGGAGTCACCTAGTGCAG”: the binding signal is 8320 fluorescence intensity (a.u.).
Consider “AACTTGGCTGATTTTATTGAGCAGTTTGTTTTTCCAGCTTCGGAGTCACCTAGTGCAG”, for which the binding signal is 8350 fluorescence intensity (a.u.).
As for “AATATACTCCATCCACACACCACACCATCTCAATATATCACGGAGTCACCTAGTGCAG”, the binding signal is 8810 fluorescence intensity (a.u.).
Under “CTTGAGCGCGTTTGGTTCCTTGTGTGTCAAGCTTCGATGTCGGAGTCACCTAGTGCAG” stands 9160 fluorescence intensity (a.u.); under “ACATTAACTAAATGGTGGAGGGCAGGGGTTCGTCTTTCTTCGGAGTCACCTAGTGCAG”, 13600 fluorescence intensity (a.u.); under “GATTCTGTCTCTACCTGACTGGTCTGACCTCACTCTGCTCCGGAGTCACCTAGTGCAG”, 8580 fluorescence intensity (a.u.).
“GTCCTGTTTCTCTGTGTGGGTGGAAGGCCTCGCCTTTCAACGGAGTCACCTAGTGCAG”: the binding signal is 8700 fluorescence intensity (a.u.).
In the case of “GGATTTTCTAACTTTATCGTTATTTGCACACATGAACTATCGGAGTCACCTAGTGCAG”, the binding signal was 9170 fluorescence intensity (a.u.).
In the case of “CTTGCATGTGAATTGATTGTACCCATTGGATTTTGTTTTCCGGAGTCACCTAGTGCAG”, the binding signal is 11400 fluorescence intensity (a.u.).
Turning to “TTCTTTTGGTTGCTGTGGTTGGTGACGGTTTTTATATTTTCGGAGTCACCTAGTGCAG”, the binding signal was 14600 fluorescence intensity (a.u.).
Turning to “TACACACAAACTTTCAACTTTTCCATCACATCGTTTCAATCGGAGTCACCTAGTGCAG”, the binding signal was 10600 fluorescence intensity (a.u.).
Consider “GAATCCGTAGTTCGATCTCAACTTCGCTGTTGTGCTTGTCCGGAGTCACCTAGTGCAG”, for which the binding signal is 9860 fluorescence intensity (a.u.).
Under “GCACACCATCGCCCATCAGACCCTGCCGCCGCGGTCTCTTCGGAGTCACCTAGTGCAG” stands 9710 fluorescence intensity (a.u.); under “CCTTGTTTCTTGGCCCGGTTCGTCGCCGGTGACGGTGGAACGGAGTCACCTAGTGCAG”, 8680 fluorescence intensity (a.u.); under “TTTTGGCAGCCGTTGGTGTTTCGCAGTCAAGTGCATTGTCCGGAGTCACCTAGTGCAG”, 8310 fluorescence intensity (a.u.).
In the case of “AACAGCCCCGAGACGCTGCCTCGCACAACTACCCGCTTTCCGGAGTCACCTAGTGCAG”, the binding signal was 8580 fluorescence intensity (a.u.).
In the case of “CATTGGGATGCCTCGCCGCCGCTTCTAGGTCTTCTTCTCGCGGAGTCACCTAGTGCAG”, the binding signal is 9620 fluorescence intensity (a.u.).
